The values below come from paper PMC8752655.

These are yes or no findings as the source states them, for the method shown. A result given as binding can be weak or reduced; the word gives no strength.

Test [1] concerns the target T1, Rice G protein beta subunit 1 (rice) (UniProt Q40687).
T1 sequence: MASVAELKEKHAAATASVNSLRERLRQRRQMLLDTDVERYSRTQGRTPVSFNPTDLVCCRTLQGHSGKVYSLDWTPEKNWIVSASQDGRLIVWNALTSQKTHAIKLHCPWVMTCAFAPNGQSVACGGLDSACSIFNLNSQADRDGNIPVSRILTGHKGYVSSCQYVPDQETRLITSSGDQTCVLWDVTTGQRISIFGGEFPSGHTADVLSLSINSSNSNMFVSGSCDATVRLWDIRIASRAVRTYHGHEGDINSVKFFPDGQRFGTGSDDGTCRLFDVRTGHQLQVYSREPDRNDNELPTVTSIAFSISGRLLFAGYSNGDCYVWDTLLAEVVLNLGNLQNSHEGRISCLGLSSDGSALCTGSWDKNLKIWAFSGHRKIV
Kind of test: yeast three-hybrid; yeast three-hybrid; GS3.1 and RGB1 with GS3.2 as third protein.

Test [2] has as its target T1, Rice G protein beta subunit 1 (rice). Kind of test: two-hybrid; yeast two-hybrid; strength judged by growth in the dropout medium.

Regarding GS3.1 (rice), the binding result in test [1] and in test [2] was “binds” in each case.
